Where a name gives a salt, the structure may show the parent alone. The list shows a part of the results. Hit calls seldom repeat between salt and free forms of one compound.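 Kinases were expressed as nanoluciferase fusions in K562 cells and luminescence was read every 4 h between 2 and 18 h as percent of control, DMSO set to 100% and a positive control to 0%. A time point counts as decreased when the signal drops significantly (2 sigma). The hit call is the authors' own, does not follow from the count of time points alone, and its rule is not shown.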
Experiments:
Conditions in all cases: K562, 2-18 h
[1] = target: STK38 (UniProt Q15208); experiment: kinase-Nluc reporter destabilization hit call (1 = scored as downregulated) (binary); higher = compound decreases kinase abundance
[2] = target: SYK (UniProt P43405); experiment: as above
[3] = target: TEC (UniProt P42680); experiment: as above
[4] = target: TYK2 (UniProt P29597); experiment: as above
[5] = target: ULK3 (UniProt Q6PHR2); experiment: as above
[6] = target: YES1 (UniProt P07947); experiment: as above
[7] = target: ZAK (UniProt Q9NYL2); experiment: as above
[8] = target: ZAP70 (UniProt P43403); experiment: as above
[9] = target: CDK4 (UniProt P11802); experiment: number of time points (of 4; 2 h point missing) at which kinase-Nluc abundance scored as decreased, DMSO-normalised (count); higher = more persistent destabilization
[10] = target: CDK7 (UniProt P50613); experiment: as above
[11] = target: CDK9 (UniProt P50750); experiment: as above

The chains behind the UniProt entries cited, without tags or fusion partners. Where a name states a change or a piece, a line headed by the entry shows the natural chain unless it says otherwise.
UniProt Q15208: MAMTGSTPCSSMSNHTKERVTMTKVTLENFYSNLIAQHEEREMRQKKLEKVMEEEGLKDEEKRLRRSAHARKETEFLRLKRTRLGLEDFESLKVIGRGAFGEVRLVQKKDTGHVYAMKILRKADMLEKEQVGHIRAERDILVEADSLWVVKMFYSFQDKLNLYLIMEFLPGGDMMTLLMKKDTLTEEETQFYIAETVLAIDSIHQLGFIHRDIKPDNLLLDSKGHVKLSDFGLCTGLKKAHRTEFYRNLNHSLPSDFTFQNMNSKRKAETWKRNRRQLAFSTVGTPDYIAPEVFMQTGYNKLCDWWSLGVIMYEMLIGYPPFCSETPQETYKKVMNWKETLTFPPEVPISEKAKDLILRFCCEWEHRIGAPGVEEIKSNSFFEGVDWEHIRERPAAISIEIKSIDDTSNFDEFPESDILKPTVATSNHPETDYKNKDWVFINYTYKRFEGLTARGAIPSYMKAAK
UniProt P42680: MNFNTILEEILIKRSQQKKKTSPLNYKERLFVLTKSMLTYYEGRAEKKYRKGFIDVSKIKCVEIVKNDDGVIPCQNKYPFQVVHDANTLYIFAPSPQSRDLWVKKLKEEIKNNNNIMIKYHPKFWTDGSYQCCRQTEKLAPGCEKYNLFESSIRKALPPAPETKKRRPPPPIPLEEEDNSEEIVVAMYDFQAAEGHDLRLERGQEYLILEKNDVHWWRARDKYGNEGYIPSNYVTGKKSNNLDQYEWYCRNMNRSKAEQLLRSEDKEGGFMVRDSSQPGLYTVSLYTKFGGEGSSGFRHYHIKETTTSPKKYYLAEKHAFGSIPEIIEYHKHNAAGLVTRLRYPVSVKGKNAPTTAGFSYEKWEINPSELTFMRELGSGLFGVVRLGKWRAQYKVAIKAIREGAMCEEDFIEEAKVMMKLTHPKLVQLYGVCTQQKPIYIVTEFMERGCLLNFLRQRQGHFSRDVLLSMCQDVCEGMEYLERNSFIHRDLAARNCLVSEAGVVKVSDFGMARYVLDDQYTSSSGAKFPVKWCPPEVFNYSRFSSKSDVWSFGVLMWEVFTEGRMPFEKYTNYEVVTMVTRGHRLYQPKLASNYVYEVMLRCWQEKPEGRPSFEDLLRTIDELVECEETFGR
UniProt P29597: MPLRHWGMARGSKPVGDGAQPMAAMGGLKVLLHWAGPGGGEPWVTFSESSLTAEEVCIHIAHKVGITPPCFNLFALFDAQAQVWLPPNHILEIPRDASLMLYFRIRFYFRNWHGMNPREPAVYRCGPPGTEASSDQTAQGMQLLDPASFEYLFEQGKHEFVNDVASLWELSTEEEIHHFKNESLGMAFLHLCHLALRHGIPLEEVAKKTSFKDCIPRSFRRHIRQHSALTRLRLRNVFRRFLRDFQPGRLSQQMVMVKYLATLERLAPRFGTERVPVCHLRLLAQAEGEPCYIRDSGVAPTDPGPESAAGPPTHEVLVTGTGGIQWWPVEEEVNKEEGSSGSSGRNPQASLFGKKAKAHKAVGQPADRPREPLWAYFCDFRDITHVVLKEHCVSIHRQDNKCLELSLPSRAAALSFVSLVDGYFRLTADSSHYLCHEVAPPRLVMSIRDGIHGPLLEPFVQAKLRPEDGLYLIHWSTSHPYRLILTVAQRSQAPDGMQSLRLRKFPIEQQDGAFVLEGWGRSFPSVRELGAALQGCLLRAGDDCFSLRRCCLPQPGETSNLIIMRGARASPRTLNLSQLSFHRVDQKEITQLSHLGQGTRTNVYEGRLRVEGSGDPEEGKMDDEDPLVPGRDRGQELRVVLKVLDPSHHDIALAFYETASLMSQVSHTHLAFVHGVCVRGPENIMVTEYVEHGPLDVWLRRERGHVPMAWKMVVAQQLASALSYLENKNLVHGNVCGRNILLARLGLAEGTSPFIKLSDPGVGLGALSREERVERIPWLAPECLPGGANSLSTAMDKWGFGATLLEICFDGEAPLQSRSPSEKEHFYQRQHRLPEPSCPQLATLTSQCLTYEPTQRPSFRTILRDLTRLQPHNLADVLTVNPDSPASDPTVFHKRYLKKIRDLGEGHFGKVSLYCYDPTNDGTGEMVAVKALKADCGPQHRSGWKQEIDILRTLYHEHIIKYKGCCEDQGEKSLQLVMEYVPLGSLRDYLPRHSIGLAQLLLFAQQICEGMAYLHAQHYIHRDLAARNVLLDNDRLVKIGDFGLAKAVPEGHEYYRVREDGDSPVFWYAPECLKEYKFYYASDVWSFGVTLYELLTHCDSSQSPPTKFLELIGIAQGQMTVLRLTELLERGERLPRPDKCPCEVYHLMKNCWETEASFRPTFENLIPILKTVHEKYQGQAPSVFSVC
UniProt Q6PHR2: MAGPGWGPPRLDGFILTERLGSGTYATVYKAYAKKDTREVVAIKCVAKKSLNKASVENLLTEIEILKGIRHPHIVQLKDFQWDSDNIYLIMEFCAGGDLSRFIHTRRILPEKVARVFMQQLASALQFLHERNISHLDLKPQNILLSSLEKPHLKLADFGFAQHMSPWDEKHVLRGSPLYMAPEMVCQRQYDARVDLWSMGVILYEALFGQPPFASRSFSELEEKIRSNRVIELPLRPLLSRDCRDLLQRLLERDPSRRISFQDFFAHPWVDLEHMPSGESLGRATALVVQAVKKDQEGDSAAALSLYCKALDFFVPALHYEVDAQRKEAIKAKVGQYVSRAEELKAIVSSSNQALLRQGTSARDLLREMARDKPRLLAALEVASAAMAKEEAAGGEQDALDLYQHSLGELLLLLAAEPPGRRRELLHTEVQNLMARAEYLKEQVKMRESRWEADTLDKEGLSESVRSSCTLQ
UniProt P07947, whole entry, looked up: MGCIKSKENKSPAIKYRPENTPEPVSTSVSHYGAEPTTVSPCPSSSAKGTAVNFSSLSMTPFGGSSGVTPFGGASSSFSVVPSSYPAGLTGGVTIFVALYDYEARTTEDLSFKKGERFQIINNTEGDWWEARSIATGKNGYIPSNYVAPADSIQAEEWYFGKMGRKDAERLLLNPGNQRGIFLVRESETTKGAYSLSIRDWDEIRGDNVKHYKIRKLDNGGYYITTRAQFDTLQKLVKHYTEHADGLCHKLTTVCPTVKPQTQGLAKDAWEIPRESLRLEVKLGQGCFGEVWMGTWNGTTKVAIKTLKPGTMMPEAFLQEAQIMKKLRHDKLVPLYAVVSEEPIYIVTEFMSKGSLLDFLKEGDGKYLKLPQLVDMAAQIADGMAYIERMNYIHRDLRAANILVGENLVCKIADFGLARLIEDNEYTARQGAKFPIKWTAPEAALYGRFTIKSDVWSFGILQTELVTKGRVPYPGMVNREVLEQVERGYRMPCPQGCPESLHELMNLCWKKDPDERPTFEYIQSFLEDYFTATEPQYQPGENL
UniProt P43403: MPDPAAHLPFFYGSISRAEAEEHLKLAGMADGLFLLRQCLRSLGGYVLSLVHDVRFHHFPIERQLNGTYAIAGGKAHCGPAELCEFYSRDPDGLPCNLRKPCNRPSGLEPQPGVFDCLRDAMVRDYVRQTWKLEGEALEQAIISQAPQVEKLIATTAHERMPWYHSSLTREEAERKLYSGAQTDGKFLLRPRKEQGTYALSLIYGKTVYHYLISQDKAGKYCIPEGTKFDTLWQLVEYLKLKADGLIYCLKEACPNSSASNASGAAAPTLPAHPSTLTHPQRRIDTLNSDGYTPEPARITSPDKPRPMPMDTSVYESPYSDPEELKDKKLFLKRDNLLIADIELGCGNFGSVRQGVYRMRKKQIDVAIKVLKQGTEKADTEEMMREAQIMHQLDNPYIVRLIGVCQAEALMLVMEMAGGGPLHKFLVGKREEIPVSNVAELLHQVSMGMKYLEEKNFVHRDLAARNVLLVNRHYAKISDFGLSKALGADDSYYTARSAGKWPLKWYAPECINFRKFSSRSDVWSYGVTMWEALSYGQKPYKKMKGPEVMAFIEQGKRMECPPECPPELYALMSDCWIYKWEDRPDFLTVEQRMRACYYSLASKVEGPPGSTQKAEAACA
UniProt P11802: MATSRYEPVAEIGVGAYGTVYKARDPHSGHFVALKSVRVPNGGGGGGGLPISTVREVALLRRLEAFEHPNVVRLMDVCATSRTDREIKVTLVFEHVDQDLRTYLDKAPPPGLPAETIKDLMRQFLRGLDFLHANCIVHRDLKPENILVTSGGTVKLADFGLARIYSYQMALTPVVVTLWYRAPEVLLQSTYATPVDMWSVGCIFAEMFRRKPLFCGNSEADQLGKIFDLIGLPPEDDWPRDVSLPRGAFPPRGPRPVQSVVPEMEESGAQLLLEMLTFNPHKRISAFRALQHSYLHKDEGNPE
UniProt P50613: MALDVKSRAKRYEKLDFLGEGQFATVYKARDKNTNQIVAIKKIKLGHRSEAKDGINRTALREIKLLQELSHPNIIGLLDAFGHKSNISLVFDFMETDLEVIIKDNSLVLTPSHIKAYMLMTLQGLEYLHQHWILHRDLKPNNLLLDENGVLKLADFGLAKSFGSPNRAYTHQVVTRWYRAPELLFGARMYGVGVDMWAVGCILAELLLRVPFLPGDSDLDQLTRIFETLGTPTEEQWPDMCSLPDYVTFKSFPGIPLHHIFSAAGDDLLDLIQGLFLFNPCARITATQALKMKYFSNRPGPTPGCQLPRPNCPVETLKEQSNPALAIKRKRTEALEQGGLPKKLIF
UniProt P50750, whole entry: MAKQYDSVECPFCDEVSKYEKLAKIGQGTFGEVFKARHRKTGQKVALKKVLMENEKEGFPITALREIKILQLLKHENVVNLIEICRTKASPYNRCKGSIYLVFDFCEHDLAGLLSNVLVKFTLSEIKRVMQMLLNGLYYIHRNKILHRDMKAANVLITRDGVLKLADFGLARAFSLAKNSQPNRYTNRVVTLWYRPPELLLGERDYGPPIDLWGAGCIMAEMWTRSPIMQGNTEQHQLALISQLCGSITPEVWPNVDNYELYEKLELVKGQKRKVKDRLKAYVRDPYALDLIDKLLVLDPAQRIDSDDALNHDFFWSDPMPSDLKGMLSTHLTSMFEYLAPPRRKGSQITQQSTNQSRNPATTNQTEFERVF

SMILES | kinase-Nluc reporter destabilization hit call ([1]; 10 µM) | kinase-Nluc reporter destabilization hit call ([2]; 10 µM) | kinase-Nluc reporter destabilization hit call ([3]; 10 µM) | kinase-Nluc reporter destabilization hit call ([4]; 10 µM) | kinase-Nluc reporter destabilization hit call ([5]; 10 µM) | kinase-Nluc reporter destabilization hit call ([6]; 10 µM) | kinase-Nluc reporter destabilization hit call ([7]; 10 µM) | kinase-Nluc reporter destabilization hit call ([8]; 10 µM) | number of time points ([9]; 10 µM) | number of time points ([10]; 10 µM) | number of time points ([11]; 10 µM) | kinase-Nluc reporter destabilization hit call ([1]; 2.5 µM) | kinase-Nluc reporter destabilization hit call ([2]; 2.5 µM) | kinase-Nluc reporter destabilization hit call ([3]; 2.5 µM) | kinase-Nluc reporter destabilization hit call ([4]; 2.5 µM) | kinase-Nluc reporter destabilization hit call ([5]; 2.5 µM) | kinase-Nluc reporter destabilization hit call ([6]; 2.5 µM) | kinase-Nluc reporter destabilization hit call ([7]; 2.5 µM) | kinase-Nluc reporter destabilization hit call ([8]; 2.5 µM) | number of time points ([9]; 2.5 µM) | number of time points ([10]; 2.5 µM) | number of time points ([11]; 2.5 µM)
COC(=O)[C@H](CC(C)C)NC(=O)c1ccc(NC[C@@H](N)CS)cc1-c1cccc2ccccc12 | inactive: 0 | inactive: 0 | inactive: 0 | inactive: 0 | inactive: 0 | inactive: 0 | inactive: 0 | inactive: 0 | 0 | 0 | 0 |  |  |  |  |  |  |  |  |  |  | 
COc1ccnc(C[S+]([O-])c2nc3cc(-n4cccc4)ccc3[nH]2)c1C (centres undefined) [Ilaprazole] | inactive: 0 | inactive: 0 | inactive: 0 | inactive: 0 | inactive: 0 | inactive: 0 | inactive: 0 | inactive: 0 | 0 | 0 | 0 |  |  |  |  |  |  |  |  |  |  | 
Nc1cncc(-c2cn3ccnc3c(Nc3ccc(N4CCN(C5COC5)CC4)cc3)n2)n1 [Lanraplenib] | inactive: 0 | inactive: 0 | inactive: 0 | inactive: 0 | inactive: 0 | inactive: 0 | inactive: 0 | inactive: 0 | 0 | 0 | 0 |  |  |  |  |  |  |  |  |  |  | 
C=CC(=O)N1CCN(c2ncnc3c(F)c(-c4c(O)cccc4F)c(Cl)cc23)CC1 | inactive: 0 | inactive: 0 | inactive: 0 | inactive: 0 | inactive: 0 | inactive: 0 | inactive: 0 | inactive: 0 | 0 | 0 | 0 | inactive: 0 | inactive: 0 | inactive: 0 | inactive: 0 | inactive: 0 | inactive: 0 | inactive: 0 | inactive: 0 | 0 | 0 | 0
C#Cc1cccc(Nc2ncnc3cc(OCCOC)c(OCCO)cc23)c1 [Desmethyl Erlotinib (hydrochloride)] | inactive: 0 | inactive: 0 | inactive: 0 | active: 1 | inactive: 0 | inactive: 0 | inactive: 0 | inactive: 0 | 0 | 0 | 0 |  |  |  |  |  |  |  |  |  |  | 
COc1cc2c(Oc3ccc4[nH]c(C)cc4c3F)ncnc2cc1OCCCN1CCCC1 [Cediranib (maleate)] |  |  |  |  |  |  |  |  |  |  |  | inactive: 0 | inactive: 0 | inactive: 0 | inactive: 0 | inactive: 0 | inactive: 0 | inactive: 0 | inactive: 0 | 0 | 0 | 0
O=C1Nc2ccccc2/C1=C/c1ccccn1 [(E/Z)-GSK-3β inhibitor 1] | inactive: 0 | inactive: 0 | inactive: 0 | inactive: 0 | inactive: 0 | inactive: 0 | inactive: 0 | inactive: 0 | 0 | 0 | 0 |  |  |  |  |  |  |  |  |  |  | 
CCS(=O)(=O)N1CC(CC#N)(n2cc(-c3ncnc4[nH]ccc34)cn2)C1 [Baricitinib] | inactive: 0 | inactive: 0 | inactive: 0 | inactive: 0 | inactive: 0 | inactive: 0 | inactive: 0 | inactive: 0 | 0 | 0 | 0 |  |  |  |  |  |  |  |  |  |  | 
C[S+]([O-])c1ccc(-c2nc(-c3ccc(F)cc3)c(-c3ccncc3)[nH]2)cc1 (centres undefined) | inactive: 0 | inactive: 0 | inactive: 0 | inactive: 0 | inactive: 0 | inactive: 0 | inactive: 0 | inactive: 0 | 0 | 0 | 0 |  |  |  |  |  |  |  |  |  |  | 
CN1CCCN(C(=O)c2cccc(-c3ccc(/C=C4/C(=O)Nc5ccc(Cl)cc54)o3)c2)CC1 [CX-6258 (hydrochloride hydrate)] |  |  |  |  |  |  |  |  |  |  |  | inactive: 0 | inactive: 0 | inactive: 0 | inactive: 0 | inactive: 0 | inactive: 0 | inactive: 0 | inactive: 0 | 0 | 0 | 0
COc1ncc(F)cc1CNc1ccc(Cc2c[nH]c3ncc(C)cc23)c(F)n1 [PLX5622 (hemifumarate)] | inactive: 0 | inactive: 0 | inactive: 0 | inactive: 0 | inactive: 0 | inactive: 0 | inactive: 0 | inactive: 0 | 0 | 0 | 0 |  |  |  |  |  |  |  |  |  |  | 
c1cc(-c2cnn3cc(-c4ccc(OCCN5CCCCC5)cc4)cnc23)ccn1 [Dorsomorphin] |  |  |  |  |  |  |  |  |  |  |  | inactive: 0 | inactive: 0 | inactive: 0 | inactive: 0 | inactive: 0 | inactive: 0 | inactive: 0 | inactive: 0 | 0 | 0 | 0
Cc1nc2ccc(-n3c(-c4nonc4N)nc4cnccc43)cc2[nH]1 | inactive: 0 | inactive: 0 | inactive: 0 | inactive: 0 | inactive: 0 | inactive: 0 | inactive: 0 | inactive: 0 | 0 | 0 | 0 |  |  |  |  |  |  |  |  |  |  | 
CNC(=O)c1ccc(Nc2ncc(C(F)(F)F)c(NCc3nccnc3N(C)S(C)(=O)=O)n2)cc1 [Defactinib (hydrochloride)] | inactive: 0 | inactive: 0 | inactive: 0 | inactive: 0 | inactive: 0 | inactive: 0 | inactive: 0 | inactive: 0 | 0 | 0 | 0 |  |  |  |  |  |  |  |  |  |  | 
COc1cc(/C=C/C(=O)O)ccc1O [Ferulic acid] | inactive: 0 | inactive: 0 | inactive: 0 | inactive: 0 | inactive: 0 | inactive: 0 | inactive: 0 | inactive: 0 | 0 | 0 | 0 |  |  |  |  |  |  |  |  |  |  | 
CC(C)Oc1ccc(-c2nn([C@@H](C)c3oc4ccc(F)cc4c(=O)c3-c3cccc(F)c3)c3ncnc(N)c23)cc1F [Umbralisib (hydrochloride)] |  |  |  |  |  |  |  |  |  |  |  | inactive: 0 | inactive: 0 | inactive: 0 | inactive: 0 | inactive: 0 | inactive: 0 | inactive: 0 | inactive: 0 | 0 | 0 | 0
COc1cc2c(Oc3ccc4[nH]c(C)cc4c3F)ncnc2cc1OCCCN1CCCC1 [Cediranib] |  |  |  |  |  |  |  |  |  |  |  | inactive: 0 | inactive: 0 | inactive: 0 | inactive: 0 | inactive: 0 | inactive: 0 | inactive: 0 | inactive: 0 | 0 | 0 | 0
N=C(N)NC(=O)c1nc(Cl)c(N)nc1N [Amiloride (hydrochloride)] | inactive: 0 | inactive: 0 | inactive: 0 | inactive: 0 | inactive: 0 | inactive: 0 | inactive: 0 | inactive: 0 | 0 | 0 | 0 |  |  |  |  |  |  |  |  |  |  | 
FC(F)(F)c1ccc(CNc2ccc(Cc3c[nH]c4ncc(Cl)cc34)cn2)cn1 [Pexidartinib] | inactive: 0 | inactive: 0 | inactive: 0 | inactive: 0 | inactive: 0 | inactive: 0 | inactive: 0 | inactive: 0 | 0 | 0 | 0 |  |  |  |  |  |  |  |  |  |  | 
C#Cc1cccc(Nc2ncnc3cc4c(cc23)OCCOCCOCCO4)c1 [Icotinib (Hydrochloride)] | inactive: 0 | inactive: 0 | inactive: 0 | inactive: 0 | inactive: 0 | inactive: 0 | inactive: 0 | inactive: 0 | 0 | 0 | 0 |  |  |  |  |  |  |  |  |  |  | 
CCCC(=O)Nc1ncnc2c1ncn2[C@@H]1O[C@@H]2COP(=O)(O)O[C@H]2[C@H]1OC(=O)CCC [Bucladesine (sodium)] | inactive: 0 | inactive: 0 | inactive: 0 | inactive: 0 | inactive: 0 | inactive: 0 | inactive: 0 | inactive: 0 | 0 | 0 | 0 |  |  |  |  |  |  |  |  |  |  | 
CN1CCCN(C(=O)c2cccc(-c3ccc(/C=C4/C(=O)Nc5ccc(Cl)cc54)o3)c2)CC1 [CX-6258 (hydrochloride)] |  |  |  |  |  |  |  |  |  |  |  | inactive: 0 | inactive: 0 | inactive: 0 | inactive: 0 | inactive: 0 | inactive: 0 | inactive: 0 | inactive: 0 | 0 | 0 | 0
Cn1ncc(Cl)c1-c1cc(C(=O)N[C@H](CN)Cc2cccc(F)c2)sc1Cl [Afuresertib] | inactive: 0 | inactive: 0 | inactive: 0 | inactive: 0 | inactive: 0 | inactive: 0 | inactive: 0 | inactive: 0 | 0 | 0 | 0 |  |  |  |  |  |  |  |  |  |  | 
COc1cc2nccc(Nc3cc(OC)c(OC)c(OC)c3)c2cc1OC [GAK inhibitor 49 (hydrochloride)] | inactive: 0 | inactive: 0 | inactive: 0 | inactive: 0 | inactive: 0 | inactive: 0 | inactive: 0 | inactive: 0 | 0 | 3 | 1 |  |  |  |  |  |  |  |  |  |  | 
C#Cc1cccc(Nc2ncnc3cc4c(cc23)OCCOCCOCCO4)c1 [Icotinib] | inactive: 0 | inactive: 0 | inactive: 0 | inactive: 0 | inactive: 0 | inactive: 0 | inactive: 0 | inactive: 0 | 0 | 0 | 0 |  |  |  |  |  |  |  |  |  |  | 
N#CCNC(=O)c1ccc(-c2ccnc(Nc3ccc(N4CCOCC4)cc3)n2)cc1 [Momelotinib] | inactive: 0 | inactive: 0 | inactive: 0 | inactive: 0 | inactive: 0 | inactive: 0 | inactive: 0 | inactive: 0 | 0 | 4 | 0 |  |  |  |  |  |  |  |  |  |  | 
O=C(Nc1ccncc1)Nc1ccc(-c2nc(N3CCOCC3)nc(N3C4CCC3COC4)n2)cc1 | inactive: 0 | inactive: 0 | inactive: 0 | inactive: 0 | inactive: 0 | inactive: 0 | inactive: 0 | inactive: 0 | 0 | 3 | 0 |  |  |  |  |  |  |  |  |  |  | 
CC(=O)c1c(C)c2cnc(Nc3ccc(N4CCNCC4)cn3)nc2n(C2CCCC2)c1=O [Palbociclib (monohydrochloride)] | inactive: 0 | inactive: 0 | inactive: 0 | inactive: 0 | inactive: 0 | inactive: 0 | inactive: 0 | inactive: 0 | 0 | 0 | 0 |  |  |  |  |  |  |  |  |  |  | 

Copied from the list:
Entry for CN1CCCN(C(=O)c2cccc(-c3ccc(/C=C4/C(=O)Nc5ccc(Cl)cc54)o3)c2)CC1 [CX-6258 (hydrochloride)] under kinase-Nluc reporter destabilization hit call ([4]; 2.5 µM): inactive: 0
Entry for FC(F)(F)c1ccc(CNc2ccc(Cc3c[nH]c4ncc(Cl)cc34)cn2)cn1 [Pexidartinib] under number of time points ([11]; 10 µM): 0
